# Literature values as cited in patent US20050124645A1, “Methods and compositions for increasing CD4lymphocyte immune responsiveness” (priority 1998, published 2005).
# At least one compound was matched to its structure with a doubt left.
# Tested on: HIV-1
# Conditions: in vitro; Roy et al. 2002; cited from earlier work
compound,measurement,value
"CO[C@H]1C[C@@H]2CC[C@@H](C)[C@@](O)(O2)C(=O)C(=O)N2CCCC[C@H]2C(=O)O[C@H]([C@H](C)C[C@@H]2CC[C@@H](O)[C@H](OC)C2)CC(=O)[C@H](C)/C=C(\C)[C@@H](O)[C@@H](OC)C(=O)[C@H](C)C[C@H](C)/C=C/C=C/C=C/1C [Rapamycin, rapamycin]",HIV-1 replication in human T cells,inhibit
